Experimental findings from patent publication US20180125973A1 are described below.

No constants are given. Whether binding was seen depends on the method and setting. Binding calls can cover weak binding; strength is not graded here.

This assay has as its target Cynomolgus CD73 ECD (cynomolgus). The experiment in a line: SPR (ProteOn XPR36), antibody captured by anti-human Fc, CD73 ECD in the mobile phase.

B1: MEDI9447 (antibody, human IgG1, lambda, V domains shown)
VH: EVQLLESGGGLVQPGGSLRLSCAASGFTFSSYAYSWVRQAPGKGLEWVSAISGSGGRTYYADSVKGRFTISRDNSKNTLYLQMNSLRAEDTAVYYCARLGYGRVDEWGRGTLVTVSS
VL: QSVLTQPPSASGTPGQRVTISCSGSLSNIGRNPVNWYQQLPGTAPKLLIYLDNLRLSGVPDRFSGSKSGTSASLAISGLQSEDEADYYCATWDDSHPGWTFGGGTKLTVLG
With B1, the binding entry was “binds”.
